Earlier results as cited in patent publication US10435371B2, “Multifunctional aminoquinoline therapeutic agent” (LOHOCLA RESEARCH CORPORATION, priority 2014, dated 2019).

Molecular target: BDZ site, GABA-A Receptor
Conditions: read-out: Reference Ki, GABAA/BZP (rat brain); PDSP historical reference value, [^3H]Flunitrazepam; cited from earlier work

Q: For CN1C(=O)CN=C(c2ccccc2)c2cc(Cl)ccc21 [Diazepam], which Ki is on record?
A: 1.5 ± 0.08 nM
